## Drug screen on melanoma cell lines: apoptosis marker

Compounds and concentrations:
sunitinib: CCN(CC)CCNC(=O)c1c(C)[nH]c(/C=C2\C(=O)Nc3ccc(F)cc32)c1C at 2000 nM
GSK650394: O=C(O)c1ccc(-c2c[nH]c3ncc(-c4ccccc4)cc23)cc1C1CCCC1 at 800 nM
dovitinib: CN1CCN(c2ccc3nc(-c4c(N)c5c(F)cccc5[nH]c4=O)[nH]c3c2)CC1 at 500 nM
SU6656: CN(C)S(=O)(=O)c1ccc2c(c1)/C(=C/c1cc3c([nH]1)CCCC3)C(=O)N2 at 2000 nM
GW9662: O=C(Nc1ccccc1)c1cc([N+](=O)[O-])ccc1Cl at 10000 nM
ENMD-2076: Cc1cc(Nc2cc(N3CCN(C)CC3)nc(/C=C/c3ccccc3)n2)n[nH]1 at 200 nM
nilutamide: CC1(C)NC(=O)N(c2ccc([N+](=O)[O-])c(C(F)(F)F)c2)C1=O at 5000 nM
GW441756: Cn1cc(/C=C2\C(=O)Nc3cccnc32)c2ccccc21 at 2000 nM

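Human melanoma cell lines in 1,536-well plates were treated with a pair of drugs for 72 h, then fixed, stained and imaged. The read-out is the fraction of cleaved-PARP-positive nuclei, in % of that fraction in the DMSO control; 200 means twice the control level of this apoptosis marker. Every drug was used at one fixed concentration, the higher of two screened. The file gives one value for each pair and line, without errors, so small differences may be noise. The marker varies much from line to line, for technical or biological reasons.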
An unselected part of the screen is shown.
A dash means that no value is listed here.

Drugs	WM115	COLO 829	LOX IMVI	LB2518-MEL	501mel	MeWo
GW441756 and ENMD-2076	144	72.4	169	69.5	100	25.8
ENMD-2076 and GSK650394	94.3	221	86.1	124	-	199
dovitinib and GW9662	184	234	46.5	181	274	180
SU6656 and GSK650394	108	57.2	201	89.1	-	132
GSK650394 and dovitinib	641	192	77.5	150	-	313
dovitinib and GW441756	153	127	105	154	208	150
nilutamide and sunitinib	94.1	43.7	106	-	-	153
sunitinib and SU6656	612	104	83.9	228	-	208
ENMD-2076 and SU6656	867	76.1	77.8	120	-	69.6
dovitinib and sunitinib	146	116	177	136	-	182
GSK650394 and GW441756	114	88.4	52.2	82.8	90.4	126
GW9662 and GW441756	197	75.7	207	163	55.7	97.5
GW441756 and SU6656	113	44.7	128	94.3	107	65.5
ENMD-2076 and dovitinib	191	176	113	241	-	187
GSK650394 and sunitinib	393	100	143	93.8	-	104
GW9662 and GSK650394	157	127	124	133	230	127
GW9662 and ENMD-2076	119	134	75.5	137	58.9	89.8
nilutamide and GW441756	96.3	21.3	89.7	153	99.5	109
nilutamide and SU6656	298	95.1	42.6	138	-	195
dovitinib and SU6656	268	163	182	204	-	382
ENMD-2076 and nilutamide	75.5	127	85.2	136	-	105

Some entries from above, unchanged:

| Drugs | WM115 | COLO 829 | LOX IMVI | LB2518-MEL | 501mel | MeWo |
|---|---|---|---|---|---|---|
| ENMD-2076 and dovitinib | 191 | 176 | 113 | 241 | - | 187 |
| nilutamide and GW441756 | 96.3 | 21.3 | 89.7 | 153 | 99.5 | 109 |
| GSK650394 and GW441756 | 114 | 88.4 | 52.2 | 82.8 | 90.4 | 126 |

Source: doi:10.1371/journal.pone.0140310, primary screening data, rounded.